Experimental data published in PubChem BioAssay AID1671190 (National Center for Advancing Translational Sciences (NCATS), 2021).
The whole screen tested about 580,000 compounds, of which about 6,100 (1.1%) were called active. This list was built around the results that the source calls inconclusive (neither active nor inactive); the mix of calls is not that of the screen. Calls follow the shape of the dose curve; as a rule, active = well fitted inhibition curve with a large enough effect; inconclusive = small, poorly fitted or top-dose-only effect, or another doubt; inactive = no such curve, though single readings can be large or run the other way. A potency beside an inconclusive call is a rough fit, not a confirmed value.

By UniProt entry, the sequences of proteins in these tests, tags left out. Where a name states a change or a piece, a line headed by the entry shows the natural chain unless it says otherwise.
UniProt P18054: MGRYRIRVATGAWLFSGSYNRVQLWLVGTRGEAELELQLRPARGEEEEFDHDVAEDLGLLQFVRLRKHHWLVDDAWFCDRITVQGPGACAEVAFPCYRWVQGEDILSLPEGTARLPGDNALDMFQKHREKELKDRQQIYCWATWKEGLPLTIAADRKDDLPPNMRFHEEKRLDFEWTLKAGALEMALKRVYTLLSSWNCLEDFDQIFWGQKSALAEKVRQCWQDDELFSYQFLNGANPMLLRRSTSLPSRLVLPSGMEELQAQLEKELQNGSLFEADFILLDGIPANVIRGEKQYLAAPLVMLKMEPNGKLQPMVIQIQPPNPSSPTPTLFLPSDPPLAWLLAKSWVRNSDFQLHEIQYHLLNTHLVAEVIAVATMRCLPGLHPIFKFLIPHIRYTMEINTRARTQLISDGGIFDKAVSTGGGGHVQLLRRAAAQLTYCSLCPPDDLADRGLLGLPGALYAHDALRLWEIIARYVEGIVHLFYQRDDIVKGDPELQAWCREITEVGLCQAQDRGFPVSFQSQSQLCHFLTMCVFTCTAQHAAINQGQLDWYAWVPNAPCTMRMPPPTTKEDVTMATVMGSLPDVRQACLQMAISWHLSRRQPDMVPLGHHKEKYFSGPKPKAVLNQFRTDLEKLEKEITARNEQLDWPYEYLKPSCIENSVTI

target: Polyunsaturated fatty acid lipoxygenase ALOX12 (Homo sapiens) (UniProt P18054); test: Primary qHTS assay for inhibitors of human arachidonate 12S-lipoxygenase (ALOX12): Round 2; settings: purified 12hLO, xylenol orange hydroperoxide absorbance; series mostly up to 108 µM
Outline: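 Purified human 12hLO at 150 nM in 25 mM Hepes, 0.01% Triton X-100, pH 7.0, preincubated 15 min at room temperature with compound. Reaction started with 40 uM arachidonic acid, 30 min at room temperature. Hydroperoxide measured by Fe-xylenol orange, 573/405 nm absorbance ratio.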
Potency is read from the fitted curve at half-maximal effect.

How did the Potency turn out when `COc1cccc([C@@H]2CC=C(C(=O)O)[C@H](c3ccc(Br)cc3)N2S(=O)(=O)c2ccc(C)cc2)c1` was run?
Its Potency is inconclusive: 89.1 µM [inhibitor, single point].

How did the Potency turn out when `COCCNC(=O)c1cc(-c2ccc(C)cc2)nc2ccccc12` was run?
The Potency was “inactive”.

Which Potency does the source give for `COc1ccc(/C=C2/SC(=S)N(CCCC(=O)N3CCN(C)CC3)C2=O)cc1` here?
Its Potency is inconclusive: 126 µM [inhibitor, single point].

Which Potency does the source give for `CCc1cccc(C)c1NC(=O)CC(C)(C)CC(=O)O` here?
The Potency was inconclusive: 112 µM [inhibitor, single point].

`COCCn1c(=S)[nH]c2cc(C(=O)N3CCc4ccccc43)ccc2c1=O` was tested. Which Potency did it give?
Its Potency is “inactive”.

For `CCS(=O)(=O)c1ccc(C(=O)NC2CC2)c(Cl)c1Cl`, which Potency is on record?
The Potency was inconclusive: 35.5 µM [inhibitor, partial curve, poor fit].

`CCOC(=O)c1[nH]c2ccccc2c1NC(=O)c1ccc(S(=O)(=O)N2CCCC2)cc1` was tested. Which Potency did it give?
Its Potency is inconclusive: 15.8 µM [inhibitor, partial curve, poor fit].

For `COc1cccc(-c2cncnc2NCCN2CCOCC2)c1`, which Potency is on record?
The Potency was inconclusive: 39.8 µM [inhibitor, partial curve].

`CCOC(=O)c1c(C)oc2cc(Sc3ccccc3)c(O)c(O)c12` was tested. Which Potency did it give?
The Potency was inconclusive: 0.355 µM [inhibitor, full curve, poor fit].

`CSCc1c(C(=O)OC2CCOC2=O)oc2ccccc12` (stereo not given) was tested. Which Potency did it give?
Its Potency is inconclusive: 44.7 µM [inhibitor, partial curve, poor fit].

Which Potency does the source give for `COc1ccc(-n2nc3ccc(NC(=O)c4ccccc4Br)cc3n2)cc1` here?
Its Potency is inconclusive: 56.2 µM [inhibitor, single point].

Which Potency does the source give for `FC(F)(F)c1ccc(NC(=S)NC2CC2)cc1` here?
The Potency was inconclusive: 31.6 µM [inhibitor, single point].

For `COc1ccc(N(C)S(=O)(=O)c2ccc(Cl)c(C(=O)NNC(=O)c3ccccc3O)c2)cc1`, which Potency is on record?
Its Potency is inconclusive: 35.5 µM [inhibitor, partial curve].

Which Potency does the source give for `O=C(c1ccc(Cl)c(S(=O)(=O)N2CCCC2)c1)N1CCN(c2ccc(F)cc2)CC1` here?
The Potency was inconclusive: 39.8 µM [inhibitor, partial curve, poor fit].

For `O=C(CCNc1cc(Cl)cc(Cl)c1)c1ccco1`, which Potency is on record?
Its Potency is inconclusive: 44.7 µM [inhibitor, partial curve].

With `COc1ccc(C(=O)NC(=S)Nc2ccc(S(=O)(=O)Nc3cc(C)on3)cc2)cc1OC` as the compound, how does the Potency read?
Its Potency is inconclusive: 28.2 µM [inhibitor, full curve, poor fit].

For `Cc1ccccc1NC(=O)c1ccc(F)c(S(=O)(=O)N2CCN(c3ccccn3)CC2)c1`, which Potency is on record?
Its Potency is inconclusive: 7.08 µM [inhibitor, full curve, poor fit].

`CCOC(=O)Cc1c[nH]c(=S)[nH]c1=O` was tested. Which Potency did it give?
The Potency was inconclusive: 3.55 µM [inhibitor, full curve, poor fit].

For `CCN1CCN(CC(O)COCc2ccccc2)CC1` (stereo not given), which Potency is on record?
The Potency was inconclusive: 28.2 µM [inhibitor, partial curve, poor fit].

With `CCOC(=O)C1=C(O)/C(=C\c2ccc(CNS(=O)(=O)c3ccc(Br)cc3)o2)N=C1C` as the compound, how does the Potency read?
Its Potency is active: 44.7 µM.

How did the Potency turn out when `CCC(C)NS(=O)(=O)c1ccc(S(=O)(=O)N(CC(=O)Nc2ccccc2)Cc2ccco2)cc1` (stereo not given) was run?
Its Potency is inconclusive: 100 µM [inhibitor, single point].

How did the Potency turn out when `CCN1CCN(c2ccc(S(=O)(=O)N3CCCCC3)cc2NC(=O)c2ccc([N+](=O)[O-])o2)CC1` was run?
Its Potency is inconclusive: 79.4 µM [inhibitor, partial curve, poor fit].

With `COC(=O)COc1ccc(-c2nccc(-c3ccc(Br)cc3)n2)cc1` as the compound, how does the Potency read?
Its Potency is “inactive”.

How did the Potency turn out when `S=C(Nc1ccccc1)Nc1ccccc1-n1cccc1` was run?
The Potency was “inactive”.

`COc1ccc(C(=O)c2no[n+]([O-])c2C(=O)c2ccc(OC)cc2)cc1` was tested. Which Potency did it give?
The Potency was inconclusive: 22.4 µM [inhibitor, single point].

Which Potency does the source give for `O=C1c2cccc(Sc3ccccc3)c2C(=O)c2c(Sc3ccccc3)cccc21` here?
Its Potency is “inactive”.

How did the Potency turn out when `CC1=C(C)NC(=S)SC1` was run?
The Potency was inconclusive: 31.6 µM [inhibitor, partial curve, poor fit].

Which Potency does the source give for `COc1ccc(N2CCN(C(=O)c3cccnc3SCc3cccc(Br)c3)CC2)cc1` here?
Its Potency is inconclusive: 25.1 µM [inhibitor, partial curve, poor fit].

`COc1ccc(C(=O)C(C)[n+]2ccc(-c3nnc4n3CCCCC4)cc2)cc1` (stereo not given) was tested. Which Potency did it give?
The Potency was inconclusive: 39.8 µM [inhibitor, partial curve, poor fit].

Which Potency does the source give for `O=c1nc2ccc(Cl)cn2c2ccc(S(=O)(=O)N3CCOCC3)cc12` here?
Its Potency is inconclusive: 56.2 µM [inhibitor, partial curve, poor fit].

Which Potency does the source give for `NC(=O)C[C@H]1NC(=O)[C@H](CCC(=O)O)NC(=O)c2cc([N+](=O)[O-])cc(I)c2NCCC[C@@H](C(N)=O)NC1=O` here?
Its Potency is “inactive”.

For `O=C(CCc1nc(-c2ccccc2F)no1)NCCN1CCN(Cc2ccccc2)CC1`, which Potency is on record?
The Potency was inconclusive: 100 µM [inhibitor, single point].

How did the Potency turn out when `C[C@H]1CN([C@@H](C)CO)S(=O)(=O)c2ccc(C#Cc3ccccn3)cc2O[C@@H]1CN(C)C(=O)C1CC1` was run?
Its Potency is inconclusive: 35.5 µM [inhibitor, partial curve, poor fit].

Which Potency does the source give for `Cc1cccc(C(=O)NC(Nc2ccc3ccccc3c2)C(Cl)(Cl)Cl)c1` (stereo not given) here?
The Potency was inconclusive: 56.2 µM [inhibitor, partial curve, poor fit].

`Cc1csc(N/N=C/c2c(F)cccc2Cl)n1` was tested. Which Potency did it give?
Its Potency is inconclusive: 50.1 µM [inhibitor, partial curve, poor fit].

`Cc1ccc(S(=O)(=O)N(C)c2ccccc2)cc1` was tested. Which Potency did it give?
Its Potency is “inactive”.

How did the Potency turn out when `CCC(=O)N1CCc2cc(S(=O)(=O)NC(CC(C)C)C(=O)NCc3cccc(OC)c3)ccc21` (stereo not given) was run?
The Potency was “inactive”.

With `COc1cccc2cc(C(=O)OC(C)C(=O)c3ccc(Cl)cc3)c(=O)oc12` (stereo not given) as the compound, how does the Potency read?
Its Potency is “inactive”.

Which Potency does the source give for `COc1ccc(OC)c(CNc2ncc(-c3ccc(Cl)cc3)n2C)c1` here?
The Potency was inconclusive: 0.0891 µM [inhibitor, full curve, poor fit].

For `CCN(Cc1ccccc1)S(=O)(=O)c1ccc(F)c(C(=O)Nc2ccc(C(C)C)cc2)c1`, which Potency is on record?
The Potency was inconclusive: 126 µM [inhibitor, single point].
